Data from PMC8602850.
These are yes or no findings as the source states them, for the method shown. Some binding calls cover weakened binding; strength is not graded here.

Protein sequences, listed by entry. Tags and fused reporters are not part of them. Residues count along the entry.
UniProt P0DTC4: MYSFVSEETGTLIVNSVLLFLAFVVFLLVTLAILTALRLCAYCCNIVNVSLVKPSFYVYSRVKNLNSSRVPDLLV
UniProt Q07021, residues 74-282: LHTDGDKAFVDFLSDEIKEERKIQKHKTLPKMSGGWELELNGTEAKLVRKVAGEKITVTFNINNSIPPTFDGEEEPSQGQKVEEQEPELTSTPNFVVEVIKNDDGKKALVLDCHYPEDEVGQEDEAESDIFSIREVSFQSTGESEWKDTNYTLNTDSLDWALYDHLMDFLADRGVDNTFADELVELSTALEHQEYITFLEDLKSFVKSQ

Target: SARS-CoV-2 envelope (E) protein, recombinant (SARS-CoV-2) (UniProt P0DTC4)
Test: ELISA; viral proteins (2-10 µg/ml) or ghA coated on microtiter wells in carbonate buffer pH 9.6, blocked with BSA; biotinylated gC1qR (1 µg/ml in Figure 5; 0-5 µg/ml in the methods), 1 h room temp., TBST washes; AP-streptavidin and pNPP; binding enhanced with 50 µM Zn (not shown); both purified

“gC1qR, wild type, mature recombinant (receptor for the globular heads of C1q) (from UniProt Q07021 74-282)” was tested, and the binding was “binds”.
